Assay results published in patent US6416998B1, “Plasmid encoding a modified steroid hormone” (Baylor College of Medicine, priority 1992, dated 2002).
For at least one compound, name, drawing or mass did not settle the structure.

Key:
Type in all cases: cell-based
[1] = test system: transactivation only construct with a mutated transregulatory domain (mutant GR); assay: Transrepression of AP-1 or NFK-B driven genes
[2] = test system: transrepression only construct with a DNA binding domain mutation (mutant GR); assay: Repression of AP-1 and NFK-B driven genes
[3] = test system: transrepression only construct with a DNA binding domain mutation (mutant GR); assay: Activation of transcription

With `CC#C[C@]1(O)CC[C@H]2[C@@H]3CCC4=CC(=O)CCC4=C3[C@@H](c3ccc(N(C)C)cc3)C[C@@]21C` [RU486, 11β-(4-dimethylaminophenyl)-17β-hydroxy-17α-propinyl-4,9-estradiene-3-one] as the compound, how does the “transrepression of AP-1 or NFK-B driven genes” value [1] read?
The value was “no transrepression”.

What about the “repression of transcription of AP-1 and NFK-B driven genes” value [2] of the same compound?
The value was “represses transcription”.

And the activation of transcription [3]?
The activation of transcription was “No activation”.

Which “transrepression of AP-1 or NFK-B driven genes” value [1] does the source give for `C[C@@H]1C[C@H]2[C@@H]3CCC4=CC(=O)C=C[C@]4(C)[C@@]3(F)[C@@H](O)C[C@]2(C)[C@@]1(O)C(=O)CO` [dexamethasone] here?
Its value is “no transrepression”.

What about the “repression of transcription of AP-1 and NFK-B driven genes” value [2] of the same compound?
Its value is “represses transcription”.

And the activation of transcription [3]?
Its activation of transcription is “No activation”.
